The assay addresses T1, mouse GARP (mouse) (UniProt G3XA59).
T1 sequence: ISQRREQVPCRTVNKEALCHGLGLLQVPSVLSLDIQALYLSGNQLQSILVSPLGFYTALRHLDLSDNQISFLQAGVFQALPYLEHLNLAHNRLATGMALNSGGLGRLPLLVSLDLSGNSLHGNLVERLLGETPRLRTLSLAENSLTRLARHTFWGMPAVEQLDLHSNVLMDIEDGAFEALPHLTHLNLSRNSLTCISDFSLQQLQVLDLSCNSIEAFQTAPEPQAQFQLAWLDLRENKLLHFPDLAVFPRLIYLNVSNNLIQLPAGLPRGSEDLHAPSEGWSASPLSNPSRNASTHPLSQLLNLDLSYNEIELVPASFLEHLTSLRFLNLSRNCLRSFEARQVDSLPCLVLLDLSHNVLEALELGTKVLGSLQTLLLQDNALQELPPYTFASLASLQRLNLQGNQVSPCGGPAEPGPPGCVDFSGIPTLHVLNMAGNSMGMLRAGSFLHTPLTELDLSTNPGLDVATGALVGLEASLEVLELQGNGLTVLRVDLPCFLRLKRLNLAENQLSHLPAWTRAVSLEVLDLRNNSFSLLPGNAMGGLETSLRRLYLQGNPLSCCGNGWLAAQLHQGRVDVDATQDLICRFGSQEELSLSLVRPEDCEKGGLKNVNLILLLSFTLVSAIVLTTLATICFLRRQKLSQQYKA
Briefly: flow cytometry on mouse platelets.

Protein sequences, listed by entry. Tags and fused reporters are not part of them. Residues count along the entry.
UniProt P04202, residues 30-278: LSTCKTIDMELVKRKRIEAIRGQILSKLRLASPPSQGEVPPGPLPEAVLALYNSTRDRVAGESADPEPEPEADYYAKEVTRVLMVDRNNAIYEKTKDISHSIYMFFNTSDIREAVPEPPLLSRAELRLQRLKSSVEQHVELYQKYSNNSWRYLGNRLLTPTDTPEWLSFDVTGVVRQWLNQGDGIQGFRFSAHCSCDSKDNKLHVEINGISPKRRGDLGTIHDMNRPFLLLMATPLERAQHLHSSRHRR

The values below come from patent US20240425571A1, “GLYCOPROTEIN A REPETITIONS PREDOMINANT (GARP)-BINDING ANTIBODIES AND USES THEREOF” (OHIO STATE INNOVATION FOUNDATION, priority 2021, published 2024).

No constants are given. Whether binding was seen depends on the method and setting. Some entries that bind do so weakly or less than the wild type.

For “mouse LAP (latency-associated peptide of mouse latent TGFβ) (from UniProt P04202 30-278) (ligand)”, the binding entry is on record as “binds”.
